Laboratory results published in paper PMC12240075.
Residue numbers refer to the chain shown, from its start. No constants are given. Whether binding was seen depends on the method and setting. In cells and extracts the contact can be indirect. Some binding calls cover weakened binding; strength is not graded here. Where a sequence is shown, tags or fusion partners need not be part of it.

Amino acid sequences for entries named in this document (tags omitted).
UniProt P11142: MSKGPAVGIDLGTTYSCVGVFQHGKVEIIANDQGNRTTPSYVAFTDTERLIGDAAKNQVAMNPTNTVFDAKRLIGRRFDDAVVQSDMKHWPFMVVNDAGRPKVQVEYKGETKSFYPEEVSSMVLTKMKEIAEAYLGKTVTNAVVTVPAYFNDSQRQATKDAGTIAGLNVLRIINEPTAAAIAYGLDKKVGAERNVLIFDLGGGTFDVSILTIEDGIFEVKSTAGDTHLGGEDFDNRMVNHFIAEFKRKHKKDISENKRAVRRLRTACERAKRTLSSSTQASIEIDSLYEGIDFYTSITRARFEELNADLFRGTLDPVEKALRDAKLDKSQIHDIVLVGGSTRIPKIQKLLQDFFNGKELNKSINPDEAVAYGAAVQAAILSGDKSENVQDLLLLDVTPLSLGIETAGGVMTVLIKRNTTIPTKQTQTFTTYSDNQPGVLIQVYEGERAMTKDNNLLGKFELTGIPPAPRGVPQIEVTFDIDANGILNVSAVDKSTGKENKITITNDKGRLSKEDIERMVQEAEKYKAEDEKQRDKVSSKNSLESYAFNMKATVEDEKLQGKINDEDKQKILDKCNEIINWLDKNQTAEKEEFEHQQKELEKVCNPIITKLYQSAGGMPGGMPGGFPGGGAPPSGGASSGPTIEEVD

Columns and labels:
GST-OGA-Q356A/E360A = target: T1, GST-OGA-Q356A/E360A (UniProt O60502); test: pull-down; recombinant GST fusion protein incubated with lysates of transfected cells, GST pull-down, immunoblot; in Fig. 3D also lysates of cells treated with 100 μM GA for 24 h; only the target purified
T1 sequence: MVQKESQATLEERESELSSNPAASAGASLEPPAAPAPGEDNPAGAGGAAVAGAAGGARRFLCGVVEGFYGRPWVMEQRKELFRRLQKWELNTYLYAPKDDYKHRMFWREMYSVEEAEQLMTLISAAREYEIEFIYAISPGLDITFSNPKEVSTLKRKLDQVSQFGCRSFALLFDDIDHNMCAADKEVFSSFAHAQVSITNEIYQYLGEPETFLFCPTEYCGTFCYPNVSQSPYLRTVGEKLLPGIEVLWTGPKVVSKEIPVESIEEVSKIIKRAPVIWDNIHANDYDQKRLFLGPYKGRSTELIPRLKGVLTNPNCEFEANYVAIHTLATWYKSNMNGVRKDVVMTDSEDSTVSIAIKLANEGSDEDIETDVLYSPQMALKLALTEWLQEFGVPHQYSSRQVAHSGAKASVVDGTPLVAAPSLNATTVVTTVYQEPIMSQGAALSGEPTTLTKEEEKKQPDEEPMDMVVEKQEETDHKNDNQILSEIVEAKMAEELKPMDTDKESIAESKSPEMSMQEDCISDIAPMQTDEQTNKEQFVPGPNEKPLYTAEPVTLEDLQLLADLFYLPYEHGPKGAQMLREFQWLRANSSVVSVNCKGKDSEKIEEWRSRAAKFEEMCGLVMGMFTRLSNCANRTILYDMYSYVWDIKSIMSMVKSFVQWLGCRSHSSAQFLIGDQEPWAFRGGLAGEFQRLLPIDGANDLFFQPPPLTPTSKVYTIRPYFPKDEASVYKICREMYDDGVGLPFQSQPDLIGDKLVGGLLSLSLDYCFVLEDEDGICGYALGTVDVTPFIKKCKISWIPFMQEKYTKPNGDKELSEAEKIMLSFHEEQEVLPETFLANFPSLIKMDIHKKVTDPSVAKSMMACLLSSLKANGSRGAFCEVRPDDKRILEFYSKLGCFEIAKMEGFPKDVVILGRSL

GST-OGA-WT = target: T2, GST-OGA-WT (UniProt O60502); test: as above
T2 sequence: T1 sequence with A356Q, A360E

GST-OGA-K358R = target: T3, GST-OGA-K358R (UniProt O60502); test: as above
T3 sequence: T1 sequence with A356Q, K358R, A360E

HA-OGA-WT = target: T4, HA-OGA-WT (UniProt O60502); test: co-IP; both proteins tagged and overproduced in transfected cells (HEK293T); immunoprecipitation by the tag, immunoblot; lysis buffer 200 mM NaCl, 1 mM EDTA, 20 mM Tris (pH 7.5), 0.5% NP-40
T4 sequence: T1 sequence with A356Q, A360E

Measured: binding

Flag-HSC70 (from UniProt P11142 1-646)
binds: all assays above
